The other results are listed elsewhere or left out.
How the values were obtained:
Assay in all cases: log2 fold change, soluble protein after heating vs DMSO (PISA); higher = thermal stabilisation; K562 cells, 10 uM, 30 min; active = over 0.2 and 3.5 SD of the protein, either way, in both replicates (recomputed)
[1] = compound: CC1=C(C=C(C=C1)NC(=O)C2=CC(=CC=C2)C(C)(C)C#N)NC3=CC4=C(C=C3)N=CN(C4=O)C
How it was run: (§1)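 For each measurement, 10 μM compound was applied for 30 min to K562 cells at 2×10^6 cells/mL. Aliquots were heated for 3 min across 48°C-58°C, pooled, and extracted in PBS with 0.5% NP-40 at 4°C; the supernatant after 21,000xg for 90 min was soluble protein. This was quantified by TMTpro 16plex LC-MS/MS with channel sums equalised, and thermal stability was reported relative to control samples from duplicates, on a log2 fold-change scale.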

The chains behind the UniProt entries cited, without tags or fusion partners. Where a name states a change or a piece, a line headed by the entry shows the natural chain unless it says otherwise.
UniProt Q9BXJ9: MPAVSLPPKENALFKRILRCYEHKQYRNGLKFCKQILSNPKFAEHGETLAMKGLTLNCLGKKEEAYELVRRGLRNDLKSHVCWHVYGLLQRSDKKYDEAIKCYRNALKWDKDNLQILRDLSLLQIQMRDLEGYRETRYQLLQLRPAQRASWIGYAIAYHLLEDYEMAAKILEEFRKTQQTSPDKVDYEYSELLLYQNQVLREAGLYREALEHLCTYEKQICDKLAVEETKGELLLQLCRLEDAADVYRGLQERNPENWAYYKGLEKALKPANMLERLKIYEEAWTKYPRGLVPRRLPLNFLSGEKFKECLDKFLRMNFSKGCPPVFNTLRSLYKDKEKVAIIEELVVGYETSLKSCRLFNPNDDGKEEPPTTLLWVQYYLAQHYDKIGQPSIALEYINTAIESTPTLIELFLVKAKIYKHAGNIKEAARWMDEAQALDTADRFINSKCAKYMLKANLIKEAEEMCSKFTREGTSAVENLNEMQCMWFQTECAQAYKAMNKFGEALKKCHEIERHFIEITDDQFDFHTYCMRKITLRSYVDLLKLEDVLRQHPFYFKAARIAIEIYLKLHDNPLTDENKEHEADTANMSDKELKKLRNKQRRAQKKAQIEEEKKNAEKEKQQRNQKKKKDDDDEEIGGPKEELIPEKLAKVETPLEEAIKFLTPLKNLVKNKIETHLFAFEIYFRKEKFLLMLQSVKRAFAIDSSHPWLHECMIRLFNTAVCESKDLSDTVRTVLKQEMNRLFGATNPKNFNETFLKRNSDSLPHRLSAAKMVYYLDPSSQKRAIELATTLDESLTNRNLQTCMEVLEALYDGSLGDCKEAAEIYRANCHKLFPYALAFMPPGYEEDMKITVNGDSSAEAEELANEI
UniProt P12036: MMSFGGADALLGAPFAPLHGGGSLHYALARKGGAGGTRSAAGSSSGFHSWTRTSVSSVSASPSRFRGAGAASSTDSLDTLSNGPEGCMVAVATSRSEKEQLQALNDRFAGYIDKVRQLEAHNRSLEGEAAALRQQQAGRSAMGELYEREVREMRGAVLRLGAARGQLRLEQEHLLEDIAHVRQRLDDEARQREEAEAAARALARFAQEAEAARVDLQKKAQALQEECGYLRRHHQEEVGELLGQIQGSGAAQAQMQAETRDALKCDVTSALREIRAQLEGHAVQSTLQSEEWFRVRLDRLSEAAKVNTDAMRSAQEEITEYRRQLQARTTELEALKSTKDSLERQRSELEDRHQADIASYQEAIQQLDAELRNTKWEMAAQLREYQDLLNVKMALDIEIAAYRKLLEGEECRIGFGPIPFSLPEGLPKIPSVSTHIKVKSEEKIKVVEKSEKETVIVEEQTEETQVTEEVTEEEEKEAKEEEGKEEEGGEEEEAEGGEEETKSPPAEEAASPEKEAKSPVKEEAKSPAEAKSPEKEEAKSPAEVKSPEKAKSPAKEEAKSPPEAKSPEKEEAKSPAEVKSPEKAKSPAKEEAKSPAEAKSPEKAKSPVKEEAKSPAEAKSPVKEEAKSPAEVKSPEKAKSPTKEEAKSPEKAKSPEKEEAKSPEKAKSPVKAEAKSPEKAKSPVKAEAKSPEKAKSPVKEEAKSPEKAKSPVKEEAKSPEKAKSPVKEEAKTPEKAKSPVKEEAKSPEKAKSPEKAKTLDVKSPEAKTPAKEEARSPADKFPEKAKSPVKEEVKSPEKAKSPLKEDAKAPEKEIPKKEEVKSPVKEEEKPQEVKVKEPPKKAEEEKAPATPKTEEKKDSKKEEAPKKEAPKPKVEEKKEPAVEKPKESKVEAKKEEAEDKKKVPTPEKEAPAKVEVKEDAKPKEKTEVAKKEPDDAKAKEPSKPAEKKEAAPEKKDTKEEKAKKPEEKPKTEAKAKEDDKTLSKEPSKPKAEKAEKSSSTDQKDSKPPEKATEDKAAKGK
UniProt O95168, whole entry, looked up: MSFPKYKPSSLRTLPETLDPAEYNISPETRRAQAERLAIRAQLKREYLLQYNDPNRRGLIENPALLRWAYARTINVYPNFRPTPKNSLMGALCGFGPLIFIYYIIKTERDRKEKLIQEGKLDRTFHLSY
UniProt O95298, whole entry, looked up: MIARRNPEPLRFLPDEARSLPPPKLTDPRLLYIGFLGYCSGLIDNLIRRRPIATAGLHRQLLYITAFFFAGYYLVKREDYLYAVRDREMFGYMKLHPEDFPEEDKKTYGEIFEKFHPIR
UniProt Q9NVZ3: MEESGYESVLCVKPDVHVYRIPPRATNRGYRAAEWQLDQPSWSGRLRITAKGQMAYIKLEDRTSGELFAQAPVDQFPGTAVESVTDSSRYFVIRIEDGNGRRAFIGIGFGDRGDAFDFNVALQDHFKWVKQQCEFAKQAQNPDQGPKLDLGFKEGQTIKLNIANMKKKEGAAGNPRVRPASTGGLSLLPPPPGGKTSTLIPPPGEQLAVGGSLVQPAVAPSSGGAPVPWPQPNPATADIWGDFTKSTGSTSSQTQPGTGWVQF
UniProt Q9BU61: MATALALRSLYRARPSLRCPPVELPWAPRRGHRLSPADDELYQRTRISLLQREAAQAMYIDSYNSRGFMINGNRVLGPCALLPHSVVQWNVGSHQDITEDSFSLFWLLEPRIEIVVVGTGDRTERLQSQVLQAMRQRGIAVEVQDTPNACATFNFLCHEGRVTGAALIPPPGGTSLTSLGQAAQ
UniProt Q09161: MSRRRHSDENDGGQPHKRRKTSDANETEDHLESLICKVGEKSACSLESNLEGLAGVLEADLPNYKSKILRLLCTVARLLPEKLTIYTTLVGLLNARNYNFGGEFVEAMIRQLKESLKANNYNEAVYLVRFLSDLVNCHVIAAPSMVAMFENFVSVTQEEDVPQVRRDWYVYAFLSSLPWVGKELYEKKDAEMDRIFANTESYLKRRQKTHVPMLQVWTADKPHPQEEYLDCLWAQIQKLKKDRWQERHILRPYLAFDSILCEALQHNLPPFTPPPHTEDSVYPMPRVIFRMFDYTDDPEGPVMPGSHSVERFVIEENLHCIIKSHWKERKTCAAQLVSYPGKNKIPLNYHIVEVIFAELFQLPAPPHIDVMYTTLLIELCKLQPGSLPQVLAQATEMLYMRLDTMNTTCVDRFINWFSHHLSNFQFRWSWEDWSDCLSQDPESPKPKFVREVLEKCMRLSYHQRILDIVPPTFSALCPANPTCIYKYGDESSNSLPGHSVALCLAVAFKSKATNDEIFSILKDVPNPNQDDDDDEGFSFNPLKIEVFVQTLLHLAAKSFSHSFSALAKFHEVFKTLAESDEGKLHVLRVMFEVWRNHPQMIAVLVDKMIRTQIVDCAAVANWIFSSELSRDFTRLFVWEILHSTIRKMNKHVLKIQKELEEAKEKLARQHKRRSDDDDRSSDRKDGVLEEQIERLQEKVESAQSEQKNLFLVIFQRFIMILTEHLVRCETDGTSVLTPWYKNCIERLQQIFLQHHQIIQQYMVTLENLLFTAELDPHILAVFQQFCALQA
UniProt Q8NCW5: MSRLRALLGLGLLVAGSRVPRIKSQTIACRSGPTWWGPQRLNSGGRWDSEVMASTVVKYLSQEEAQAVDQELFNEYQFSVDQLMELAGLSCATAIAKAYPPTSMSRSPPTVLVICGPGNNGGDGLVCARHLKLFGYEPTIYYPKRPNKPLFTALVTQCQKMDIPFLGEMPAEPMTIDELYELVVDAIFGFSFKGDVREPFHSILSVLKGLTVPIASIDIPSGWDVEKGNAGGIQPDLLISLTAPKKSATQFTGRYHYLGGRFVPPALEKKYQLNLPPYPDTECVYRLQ
UniProt E9PAV3, whole entry, looked up: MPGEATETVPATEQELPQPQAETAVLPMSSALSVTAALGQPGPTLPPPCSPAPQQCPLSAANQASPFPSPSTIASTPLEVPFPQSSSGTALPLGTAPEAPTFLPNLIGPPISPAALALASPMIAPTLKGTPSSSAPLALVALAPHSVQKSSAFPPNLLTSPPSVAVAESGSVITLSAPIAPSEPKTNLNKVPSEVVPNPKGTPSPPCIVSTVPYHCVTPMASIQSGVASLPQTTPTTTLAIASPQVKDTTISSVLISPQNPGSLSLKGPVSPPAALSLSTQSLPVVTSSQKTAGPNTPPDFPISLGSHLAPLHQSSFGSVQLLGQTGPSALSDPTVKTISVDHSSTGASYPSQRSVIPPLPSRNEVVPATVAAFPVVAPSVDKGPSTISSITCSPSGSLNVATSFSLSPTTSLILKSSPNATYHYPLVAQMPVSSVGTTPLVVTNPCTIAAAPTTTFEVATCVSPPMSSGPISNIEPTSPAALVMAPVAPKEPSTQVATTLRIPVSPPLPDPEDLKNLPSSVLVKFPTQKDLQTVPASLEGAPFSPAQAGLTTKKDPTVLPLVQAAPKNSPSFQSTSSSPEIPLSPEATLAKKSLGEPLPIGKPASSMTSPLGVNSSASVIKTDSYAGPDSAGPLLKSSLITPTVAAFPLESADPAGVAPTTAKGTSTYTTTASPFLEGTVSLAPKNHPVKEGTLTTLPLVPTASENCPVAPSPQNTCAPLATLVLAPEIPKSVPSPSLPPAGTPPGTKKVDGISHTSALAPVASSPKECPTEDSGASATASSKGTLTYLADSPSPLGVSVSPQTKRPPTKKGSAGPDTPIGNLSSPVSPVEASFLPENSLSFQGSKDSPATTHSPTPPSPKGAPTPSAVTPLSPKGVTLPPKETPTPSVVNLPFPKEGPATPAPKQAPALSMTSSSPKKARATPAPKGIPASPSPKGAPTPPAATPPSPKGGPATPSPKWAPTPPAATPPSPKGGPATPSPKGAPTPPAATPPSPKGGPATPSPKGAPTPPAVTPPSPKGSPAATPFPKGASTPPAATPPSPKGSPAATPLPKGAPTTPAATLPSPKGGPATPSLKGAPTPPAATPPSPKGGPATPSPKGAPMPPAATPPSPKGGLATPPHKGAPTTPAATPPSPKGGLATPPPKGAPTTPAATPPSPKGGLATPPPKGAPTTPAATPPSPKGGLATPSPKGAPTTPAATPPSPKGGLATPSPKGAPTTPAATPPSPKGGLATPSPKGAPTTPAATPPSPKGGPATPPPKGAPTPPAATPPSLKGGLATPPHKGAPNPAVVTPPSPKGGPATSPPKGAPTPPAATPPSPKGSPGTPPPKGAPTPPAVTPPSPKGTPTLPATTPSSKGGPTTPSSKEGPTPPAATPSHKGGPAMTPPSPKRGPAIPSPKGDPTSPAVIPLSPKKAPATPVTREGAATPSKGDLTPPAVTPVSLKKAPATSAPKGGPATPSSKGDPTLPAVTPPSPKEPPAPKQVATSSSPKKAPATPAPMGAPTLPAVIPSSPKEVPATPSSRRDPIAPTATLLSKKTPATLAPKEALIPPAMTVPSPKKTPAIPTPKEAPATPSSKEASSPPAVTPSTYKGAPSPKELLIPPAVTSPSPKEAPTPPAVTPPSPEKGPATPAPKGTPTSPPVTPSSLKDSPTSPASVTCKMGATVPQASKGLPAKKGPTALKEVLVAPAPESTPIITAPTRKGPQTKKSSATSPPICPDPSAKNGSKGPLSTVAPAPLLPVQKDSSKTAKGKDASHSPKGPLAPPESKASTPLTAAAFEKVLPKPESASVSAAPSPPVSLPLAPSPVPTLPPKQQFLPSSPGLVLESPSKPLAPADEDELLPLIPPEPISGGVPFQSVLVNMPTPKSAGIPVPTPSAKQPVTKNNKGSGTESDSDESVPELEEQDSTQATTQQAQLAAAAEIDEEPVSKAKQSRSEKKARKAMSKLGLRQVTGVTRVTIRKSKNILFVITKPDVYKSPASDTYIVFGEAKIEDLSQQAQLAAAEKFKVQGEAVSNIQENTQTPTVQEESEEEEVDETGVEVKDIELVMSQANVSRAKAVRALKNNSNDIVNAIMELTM
UniProt Q9UJ70, whole entry, looked up: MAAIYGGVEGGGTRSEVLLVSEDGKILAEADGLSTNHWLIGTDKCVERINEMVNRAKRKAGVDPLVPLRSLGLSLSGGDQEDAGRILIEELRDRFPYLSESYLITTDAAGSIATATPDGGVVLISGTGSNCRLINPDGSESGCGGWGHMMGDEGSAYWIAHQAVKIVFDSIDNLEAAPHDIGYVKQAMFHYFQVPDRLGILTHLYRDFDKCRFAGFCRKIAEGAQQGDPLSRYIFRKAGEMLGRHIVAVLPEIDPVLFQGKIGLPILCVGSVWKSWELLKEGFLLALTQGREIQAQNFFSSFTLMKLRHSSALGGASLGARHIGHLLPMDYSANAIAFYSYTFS
UniProt Q6P582, whole entry, looked up: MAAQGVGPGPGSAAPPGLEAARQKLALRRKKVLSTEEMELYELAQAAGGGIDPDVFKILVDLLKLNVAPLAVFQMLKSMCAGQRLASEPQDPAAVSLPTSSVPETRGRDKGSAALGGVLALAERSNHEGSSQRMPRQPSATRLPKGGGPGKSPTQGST
UniProt Q8IW45: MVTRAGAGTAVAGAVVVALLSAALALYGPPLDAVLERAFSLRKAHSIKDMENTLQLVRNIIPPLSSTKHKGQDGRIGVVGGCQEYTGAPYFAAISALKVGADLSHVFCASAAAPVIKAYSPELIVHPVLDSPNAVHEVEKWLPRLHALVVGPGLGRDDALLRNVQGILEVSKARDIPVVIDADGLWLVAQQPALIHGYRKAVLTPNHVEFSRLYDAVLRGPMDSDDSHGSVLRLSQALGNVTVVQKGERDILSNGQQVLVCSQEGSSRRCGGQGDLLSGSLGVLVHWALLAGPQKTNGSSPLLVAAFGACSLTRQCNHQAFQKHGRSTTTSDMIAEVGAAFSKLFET

[2] = compound: CC1=C(C=C(C=C1)NC(=O)C2=CC(=CC=C2)N(C)C)NC(=O)C3=CC=C(C=C3)O
How it was run: as §1

[3] = compound: CC1=CC=C(C=C1)SC2=C3C=C(SC3=CN=C2)C(=O)N
How it was run: as §1

[4] = compound: CC1=NC(=CC=C1)C2=C(N=C(N2)C(C)(C)C)C3=CC4=NC=CN=C4C=C3
How it was run: as §1

Nexturastat A = compound: CCCCN(Cc1ccc(C(=O)NO)cc1)C(=O)Nc1ccccc1 [Nexturastat A]
How it was run: as §1

vemurafenib = compound: CCCS(=O)(=O)Nc1ccc(F)c(C(=O)c2c[nH]c3ncc(-c4ccc(Cl)cc4)cc23)c1F [vemurafenib]
How it was run: as §1

[5] = compound: CCCS(=O)(=O)Nc1ccc(F)c(C(=O)c2c[nH]c3ncc(Cl)cc23)c1F
How it was run: as §1

[6] = compound: CCCc1cc(C)[nH]c(=O)c1CNC(=O)c1cc(-c2ccnc(N3CCN(C)CC3)c2)cc2c1cnn2C(C)C
How it was run: as §1

givinostat = compound: CCN(CC)Cc1ccc2cc(COC(=O)Nc3ccc(C(=O)NO)cc3)ccc2c1 [givinostat]
How it was run: as §1

barasertib = compound: CCN(CCCOc1ccc2c(Nc3cc(CC(=O)Nc4cccc(F)c4)[nH]n3)ncnc2c1)CCOP(=O)(O)O [barasertib]
How it was run: as §1

[7] = compound: CC[C@@H]1C(=O)N(C)c2cnc(Nc3ccc(C(=O)NC4CCN(C)CC4)cc3OC)nc2N1C1CCCC1
How it was run: as §1

volasertib = compound: CC[C@@H]1C(=O)N(C)c2cnc(Nc3ccc(C(=O)N[C@H]4CC[C@H](N5CCN(CC6CC6)CC5)CC4)cc3OC)nc2N1C(C)C [volasertib]
How it was run: as §1

[8] = compound: CC[C@H](C)N1C=C(C2=C(C=C(C=C21)C3=CN=C(C=C3)N4CCNCC4)C(=O)NCC5=C(C=C(NC5=O)C)C)C
How it was run: as §1

epoxomicin = compound: CC[C@H](C)[C@@H](C(=O)N[C@@H]([C@@H](C)O)C(=O)N[C@@H](CC(C)C)C(=O)[C@]1(CO1)C)NC(=O)[C@H]([C@@H](C)CC)N(C)C(=O)C [epoxomicin]
How it was run: as §1

[9] = compound: CCn1c(C(=O)N(C2CC2)C2CC2)cc2c3c(ncn3C)c(Nc3cc(C)n(C)n3)nc21
How it was run: as §1

[10] = compound: CCn1cc(-c2ccnc3[nH]c(-c4cccc(CN(C)C)c4)cc23)c(-c2ccc(NC(=O)N(C)C)cc2)n1
How it was run: as §1

[11] = compound: CN(C)CC(=O)Nc1ccc2[nH]c(=O)c3ccccc3c2c1
How it was run: as §1

rosiglitazone = compound: CN(CCOC1=CC=C(C=C1)C[C@H]2C(=O)NC(=O)S2)C3=CC=CC=N3 (racemic) [rosiglitazone]
How it was run: as §1

[12] = compound: CN1C2=C(C3=C1C(=O)N(N=C3)CC4=CC(=CC=C4)N)SC(=C2)S(=O)C
How it was run: as §1

[13] = compound: CN1CCC(CNc2ccc3ncc(-c4cccc(OC(F)(F)F)c4)n3n2)CC1
How it was run: as §1

Measured: log2 fold change

NAA15 (UniProt Q9BXJ9)
inactive: [1] 0.01 | [2] 0.027 | [3] 0.028 | [4] 0.055 | Nexturastat A -0.047 | vemurafenib 0.023 | [5] 0.027 | [6] 0.045 | givinostat -0.021 | barasertib 0.026 | [7] -0.015 | volasertib -0.053 | [8] 0.04 | epoxomicin 0.025 | [9] 0.023 | [10] -0.024 | [11] 0.006 | rosiglitazone 0.024 | [12] -0.093 | [13] -0.039

MYO9B (UniProt Q13459)
inactive: [1] -0.065 | [2] -0.006 | [3] 0.019 | [4] -0.059 | Nexturastat A 0.212 | vemurafenib -0.009 | [5] -0.026 | [6] 0.077 | givinostat 0.017 | barasertib -0.04 | [7] 0.127 | volasertib -0.066 | [8] 0.078 | epoxomicin -0.011 | [9] -0.034 | [10] 0.033 | [11] 0.056 | rosiglitazone 0 | [12] 0.082 | [13] -0.047

NEFH (UniProt P12036)
inactive: [1] -0.032 | [2] -0.038 | [3] 0.019 | [4] -0.15 | Nexturastat A 0.331 | vemurafenib -0.031 | [5] -0.073 | [6] 0.046 | givinostat 0.043 | barasertib -0.087 | [7] 0.259 | volasertib 0.069 | [8] -0.02 | epoxomicin -0.206 | [9] 0.125 | [10] 0.416 | [11] -0.109 | rosiglitazone -0.13 | [12] 0.332 | [13] 0.098

NDUFB4 (UniProt O95168)
inactive: [1] 0.04 | [2] -0.001 | [3] 0 | [4] 0 | Nexturastat A 0.023 | vemurafenib -0.027 | [5] -0.021 | [6] 0.097 | givinostat 0.022 | barasertib -0.003 | [7] -0.064 | volasertib -0.064 | [8] 0.026 | epoxomicin 0.052 | [9] -0.016 | [10] -0.054 | [11] 0.01 | rosiglitazone -0.011 | [12] -0.053 | [13] -0.135

NDUFC2 (UniProt O95298)
inactive: [1] 0.014 | [2] -0.037 | [3] 0.014 | [4] 0.201 | Nexturastat A 0.001 | vemurafenib -0.043 | [5] -0.047 | [6] -0.092 | givinostat -0.058 | barasertib 0.012 | [7] 0.043 | volasertib 0.033 | [8] -0.045 | epoxomicin 0.142 | [9] 0.047 | [10] 0.011 | [11] -0.003 | rosiglitazone 0.008 | [12] 0.02 | [13] -0.121

NECAP2 (UniProt Q9NVZ3)
inactive: [1] 0.073 | [2] -0.019 | [3] 0.056 | [4] 0.019 | Nexturastat A -0.066 | vemurafenib -0.002 | [5] 0.042 | [6] -0.009 | givinostat 0.039 | barasertib 0.004 | [7] -0.048 | volasertib -0.094 | [8] 0.053 | epoxomicin 0.037 | [9] 0.007 | [10] -0.018 | [11] 0.036 | rosiglitazone 0.028 | [12] -0.083 | [13] -0.017

NDUFAF3 (UniProt Q9BU61)
inactive: [1] -0.001 | [2] -0.036 | [3] 0.078 | [4] 0.07 | Nexturastat A -0.123 | vemurafenib 0.035 | [5] 0.062 | [6] -0.033 | givinostat 0.003 | barasertib 0.051 | [7] -0.011 | volasertib -0.008 | [8] 0 | epoxomicin 0.006 | [9] 0.012 | [10] -0.049 | [11] 0.198 | rosiglitazone 0.011 | [12] -0.1 | [13] -0.157

NDUFA13 (UniProt Q9P0J0)
inactive: [1] 0.05 | [2] -0.027 | [3] 0.053 | [4] 0.068 | Nexturastat A -0.047 | vemurafenib -0.081 | [5] 0.058 | [6] -0.007 | givinostat 0.006 | barasertib -0.006 | [7] -0.063 | volasertib -0.025 | [8] -0.001 | epoxomicin 0.015 | [9] 0.047 | [10] -0.01 | [11] -0.016 | rosiglitazone 0.019 | [12] -0.07 | [13] -0.093

NCBP1 (UniProt Q09161)
inactive: [1] 0.019 | [2] 0.021 | [3] 0.002 | [4] 0.029 | Nexturastat A -0.049 | vemurafenib 0.014 | [5] 0.04 | [6] -0.017 | givinostat -0.017 | barasertib 0.022 | [7] -0.006 | volasertib -0.127 | [8] 0.012 | epoxomicin 0.014 | [9] 0.001 | [10] -0.018 | [11] 0.045 | rosiglitazone 0.038 | [12] -0.015 | [13] -0.001

NAXE (UniProt Q8NCW5)
inactive: [1] 0.01 | [2] -0.015 | [3] 0.049 | [4] 0.003 | Nexturastat A -0.024 | vemurafenib 0.009 | [5] -0.025 | [6] -0.025 | givinostat -0.04 | barasertib 0.007 | [7] -0.005 | volasertib 0.048 | [8] -0.007 | epoxomicin -0.02 | [9] -0.013 | [10] -0.035 | [11] -0.036 | rosiglitazone 0 | [12] -0.032 | [13] 0.006

NACA (UniProt E9PAV3)
inactive: [1] -0.011 | [2] 0.043 | [3] 0.013 | [4] 0.023 | Nexturastat A 0.043 | vemurafenib -0.03 | [5] 0.02 | [6] -0.042 | givinostat -0.01 | barasertib -0.009 | [7] 0.05 | volasertib 0.045 | [8] -0.034 | epoxomicin -0.025 | [9] 0.017 | [10] 0.007 | [11] -0.059 | rosiglitazone -0.034 | [12] -0.025 | [13] -0.012

Two successive entries out of the list so far:
NDUFAF3 (UniProt Q9BU61)
inactive: [1] -0.001 | [2] -0.036 | [3] 0.078 | [4] 0.07 | Nexturastat A -0.123 | vemurafenib 0.035 | [5] 0.062 | [6] -0.033 | givinostat 0.003 | barasertib 0.051 | [7] -0.011 | volasertib -0.008 | [8] 0 | epoxomicin 0.006 | [9] 0.012 | [10] -0.049 | [11] 0.198 | rosiglitazone 0.011 | [12] -0.1 | [13] -0.157

NDUFA13 (UniProt Q9P0J0)
inactive: [1] 0.05 | [2] -0.027 | [3] 0.053 | [4] 0.068 | Nexturastat A -0.047 | vemurafenib -0.081 | [5] 0.058 | [6] -0.007 | givinostat 0.006 | barasertib -0.006 | [7] -0.063 | volasertib -0.025 | [8] -0.001 | epoxomicin 0.015 | [9] 0.047 | [10] -0.01 | [11] -0.016 | rosiglitazone 0.019 | [12] -0.07 | [13] -0.093

Continued:

NAGK isoform 2 (UniProt Q9UJ70)
inactive: [1] 0.037 | [2] 0.027 | [3] 0.005 | [4] -0.011 | Nexturastat A 0.001 | vemurafenib -0.049 | [5] -0.004 | [6] -0.021 | givinostat 0.01 | barasertib -0.022 | [7] 0.056 | volasertib 0.038 | [8] 0.014 | epoxomicin -0.084 | [9] -0.009 | [10] 0.035 | [11] 0.031 | rosiglitazone 0.028 | [12] -0.005 | [13] -0.055

NBAS (UniProt A2RRP1)
inactive: [1] -0.036 | [2] 0.004 | [3] -0.072 | [4] -0.119 | Nexturastat A 0.133 | vemurafenib 0.054 | [5] -0.016 | [6] 0.085 | givinostat 0.23 | barasertib 0.004 | [7] 0.032 | volasertib -0.366 | [8] 0.159 | epoxomicin -0.13 | [9] -0.187 | [10] 0.066 | [11] 0.044 | rosiglitazone 0.05 | [12] 0.148 | [13] 0.011

MZT2A (UniProt Q6P582)
inactive: [1] -0.073 | [2] -0.012 | [3] 0.021 | [4] 0.001 | Nexturastat A 0.094 | vemurafenib 0.156 | [5] -0.03 | [6] -0.045 | givinostat -0.013 | barasertib -0.038 | [7] 0.026 | volasertib 0.098 | [8] 0.053 | epoxomicin 0.167 | [9] 0.053 | [10] 0.184 | [11] -0.072 | rosiglitazone -0.058 | [12] 0.051 | [13] -0.097

NCBP2 (UniProt P52298)
inactive: [1] 0.002 | [2] -0.02 | [3] -0.012 | [4] -0.006 | Nexturastat A -0.005 | vemurafenib 0.028 | [5] 0.009 | [6] -0.031 | givinostat 0.022 | barasertib 0.022 | [7] 0.057 | volasertib 0.004 | [8] 0.039 | epoxomicin -0.001 | [9] 0.012 | [10] -0.011 | [11] 0.004 | rosiglitazone -0.008 | [12] -0.096 | [13] -0.036

NAXD (UniProt Q8IW45)
inactive: [1] 0.021 | [2] -0.004 | [3] 0.037 | [4] 0.005 | Nexturastat A -0.025 | vemurafenib -0.002 | [5] -0.007 | [6] -0.027 | givinostat 0.031 | barasertib -0.01 | [7] 0.012 | volasertib 0.085 | [8] 0.062 | epoxomicin 0.106 | [9] 0.038 | [10] -0.129 | [11] 0.01 | rosiglitazone -0.021 | [12] -0.027 | [13] -0.061

Source: the supplement of paper PMC10849652
